In article PMC10904395, “The Deinococcus protease PprI senses DNA damage by directly interacting with single-stranded DNA”:

Columns and labels:
Test in all cases: EMSA
[1] = biological target: T1, DG-PprI patch 2 mutant L22A,K26A,R117A (Deinococcus geothermalis) (UniProt Q1J1D6); conditions: smeared shifted bands; EMSA: 150 mM NaCl, 20 mM Tris-HCl pH 8.0, 0.1 mg/ml BSA, 0.1 uM FAM-labeled nucleic acid, 0/1/2 uM protein, room temperature 30 min, 10% native PAGE in 1x TB; recombinant protein; residues 1-289; label: 5' FAM; single-stranded DNA
T1 sequence (looked up): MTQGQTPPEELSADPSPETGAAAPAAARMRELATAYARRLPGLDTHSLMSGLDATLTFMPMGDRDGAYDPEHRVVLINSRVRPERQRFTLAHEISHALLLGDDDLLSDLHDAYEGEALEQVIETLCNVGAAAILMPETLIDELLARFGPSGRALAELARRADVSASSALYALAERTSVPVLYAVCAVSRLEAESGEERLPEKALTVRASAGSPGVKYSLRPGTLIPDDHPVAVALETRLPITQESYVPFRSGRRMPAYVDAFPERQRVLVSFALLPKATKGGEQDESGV

[2] = biological target: T2, DG-PprI R85A/R207A (Deinococcus geothermalis) (UniProt Q1J1D6); conditions: smeared shifted bands; EMSA: 150 mM NaCl, 20 mM Tris-HCl pH 8.0, 0.1 mg/ml BSA, 0.1 uM FAM-labeled nucleic acid, 0/1/2 uM protein, room temperature 30 min, 10% native PAGE in 1x TB; recombinant protein; residues 1-289; label: 5' FAM; single-stranded DNA
T2 sequence (looked up): T1 sequence (looked up) with A22L, A26K, R85A, A117R, R207A

[3] = biological target: T3, DG-PprI R207A/R267A (Deinococcus geothermalis) (UniProt Q1J1D6); conditions: smeared shifted bands; EMSA: 150 mM NaCl, 20 mM Tris-HCl pH 8.0, 0.1 mg/ml BSA, 0.1 uM FAM-labeled nucleic acid, 0/1/2 uM protein, room temperature 30 min, 10% native PAGE in 1x TB; recombinant protein; residues 1-289; label: 5' FAM; single-stranded DNA
T3 sequence (looked up): T1 sequence (looked up) with A22L, A26K, A117R, R207A, R267A

[4] = biological target: T4, DG-PprI patch 3 mutant R220A,R250A,S251A (Deinococcus geothermalis) (UniProt Q1J1D6); conditions: described as defective; EMSA: 150 mM NaCl, 20 mM Tris-HCl pH 8.0, 0.1 mg/ml BSA, 0.1 uM FAM-labeled nucleic acid, 0/1/2 uM protein, room temperature 30 min, 10% native PAGE in 1x TB; recombinant protein; residues 1-289; label: 5' FAM; single-stranded DNA
T4 sequence (looked up): T1 sequence (looked up) with A22L, A26K, A117R, R220A, R250A, S251A

Measured: binding result

CGCTCTTCGCCATTCTCTTGAAGTTTCAAACTTGG [35nt ssDNA]
binds more weakly: all assays above

Where a chain is given by its changes, count along the chain named. A weaker result is weaker than the reference pair of the same experiment. Tags and fusion partners may be left off the protein sequences shown.
